Assay results reported in paper PMC12141716, “An archaeal nucleoid-associated protein binds an essential motif in DNA replication origins” (Nature Communications, 2025).
Results are given in words; binding and its absence hold for the method and conditions named. Some binding calls cover weakened binding; strength is not graded here. Tags and fused reporters may be left off the sequences shown.

What was measured:
Experiment in all cases: two-hybrid; yeast, Matchmaker (Clontech), pGADT7 prey and pGBKT7 bait; growth on His plates
[1] = biological target: T1, MCM A domain (residues 1-106), yeast two-hybrid fusion (Sulfolobus islandicus REY15A) (UniProt F0NF15)
T1 sequence: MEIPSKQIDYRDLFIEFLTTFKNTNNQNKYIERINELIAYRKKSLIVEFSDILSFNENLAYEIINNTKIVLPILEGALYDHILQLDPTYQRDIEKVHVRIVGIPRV

[2] = biological target: T2, MCM B/C domains (residues 107-266), yeast two-hybrid fusion (Sulfolobus islandicus REY15A) (UniProt F0NF15)
T2 sequence: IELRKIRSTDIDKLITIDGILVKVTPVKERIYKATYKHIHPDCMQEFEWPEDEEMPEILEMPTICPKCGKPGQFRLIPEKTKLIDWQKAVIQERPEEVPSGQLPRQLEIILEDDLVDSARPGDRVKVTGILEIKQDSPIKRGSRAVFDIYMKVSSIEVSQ

[3] = biological target: T3, MCM N-terminal domains (residues 1-266), yeast two-hybrid fusion (Sulfolobus islandicus REY15A) (UniProt F0NF15)
T3 sequence: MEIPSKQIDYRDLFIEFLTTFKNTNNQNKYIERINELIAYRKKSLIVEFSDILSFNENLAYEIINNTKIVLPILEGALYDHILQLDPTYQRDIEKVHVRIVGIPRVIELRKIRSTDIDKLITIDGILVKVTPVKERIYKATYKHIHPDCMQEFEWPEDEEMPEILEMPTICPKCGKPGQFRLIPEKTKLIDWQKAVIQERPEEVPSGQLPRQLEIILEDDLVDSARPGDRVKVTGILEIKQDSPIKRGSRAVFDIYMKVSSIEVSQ

[4] = biological target: T4, MCM, yeast two-hybrid fusion (Sulfolobus islandicus REY15A) (UniProt F0NF15)
T4 sequence: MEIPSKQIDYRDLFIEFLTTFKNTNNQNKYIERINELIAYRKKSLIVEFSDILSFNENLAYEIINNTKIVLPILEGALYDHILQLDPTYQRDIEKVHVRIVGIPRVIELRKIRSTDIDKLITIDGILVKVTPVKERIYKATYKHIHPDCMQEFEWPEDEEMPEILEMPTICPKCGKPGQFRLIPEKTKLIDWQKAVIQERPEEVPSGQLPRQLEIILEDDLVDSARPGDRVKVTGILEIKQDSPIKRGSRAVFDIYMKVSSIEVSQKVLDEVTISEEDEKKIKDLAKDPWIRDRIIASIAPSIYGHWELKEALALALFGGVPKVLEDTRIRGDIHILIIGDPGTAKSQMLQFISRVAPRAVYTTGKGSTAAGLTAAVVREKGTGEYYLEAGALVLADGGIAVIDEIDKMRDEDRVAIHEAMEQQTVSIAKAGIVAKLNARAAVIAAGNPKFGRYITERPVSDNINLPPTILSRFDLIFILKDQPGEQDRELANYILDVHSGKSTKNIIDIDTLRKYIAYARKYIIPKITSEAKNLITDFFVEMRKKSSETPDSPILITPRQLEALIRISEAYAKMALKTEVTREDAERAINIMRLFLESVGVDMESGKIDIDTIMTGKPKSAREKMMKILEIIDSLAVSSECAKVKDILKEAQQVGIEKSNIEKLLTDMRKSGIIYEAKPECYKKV

Measured: binding

B1: UBP, yeast two-hybrid fusion (protein, UniProt F0NFD3 1-111)
chain: MIVMRVKVNEKQFDMIIDKLKLMVYEYNTKIKEYGVYLKPYHIVYKNSKRYIYIGKYWYKLEKIGGKLKWIYLGKTKPIQNMPNPPQIPESTIIKEDNEYIVDEKILYDLE
binds: all assays above
